Results: patent publication US20200009173A1, “TRIAZOLE-CONTAINING MACROLIDES AND OPHTHALMIC USES THEREFOR” (Tetard, Inc., priority 2017, published 2020)
At least one compound was matched to its structure with a doubt left.

Tested on: MSRA
Assay: MICs of solithromycin and comparator drugs, MSRA (30 species)
Assay type: cell-based
Parameters: unit not given beside the values
Source text: EXAMPLE. The formulations described herein show overall higher potency against ocular pathogens than commercial standards.
MICs (μg/ml) of Solithromycin and Comparator Drugs against Bacterial Species

## COc1c(N2C[C@@H]3CCCN[C@@H]3C2)c(F)cc2c(=O)c(C(=O)O)cn(C3CC3)c12 [Moxifloxacin]
  MIC Range: 0.06->8
